Results reported in PubChem BioAssay AID504834 (National Center for Advancing Translational Sciences (NCATS), 2011).
Hit rate of the full screen: of about 320,000 compounds, about 22,000 (6.9%) were called active. Inconclusive results, whose numbers are uncertain, are shown with a selection of clear calls. Calls follow the shape of the dose curve; as a rule, active = well fitted inhibition curve with a large enough effect; inconclusive = small, poorly fitted or top-dose-only effect, or another doubt; inactive = no such curve, though single readings can be large or run the other way. Where the call is inconclusive, the potency comes from a doubtful curve fit. Where a SMILES comes first, the peptide text is derived from it. The star is where a group is joined. Cbz = O=C(OCc1ccccc1)*

Assay: Primary qHTS for delayed death inhibitors of the malarial parasite plastid, 96 hour incubation
Settings: P. falciparum luciferase reporter growth; series mostly up to 28.7 µM; activity change, negative = inhibition: at the top concentration
Method in brief: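 P. falciparum expressing integrated firefly luciferase, in erythrocytes at 2% hematocrit, 0.05% parasitemia, incubated with compounds 96 h at 37 C, 5% CO2. Growth inhibition read as loss of luminescence; two-generation exposure targets delayed-death apicoplast inhibitors.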
% is scaled to controls: 0 for no effect and ±100 for the full control effect; potency is read from the fitted curve at half-maximal effect.

Row | Structure (SMILES) | Potency | activity change, negative = inhibition
1 | CCOc1ccc2oc(=O)cc(C)c2c1 | inconclusive: 7.38 µM [inhibitor, partial curve] | 
2 | O=C1c2ccccc2C(=O)N1CCCc1nc2ccccc2c(=O)n1Cc1ccco1 | inconclusive: 4.15 µM [inhibitor, single point] | 
3 | COc1ccc(OC)c(-c2csc(NC(=O)C3c4ccccc4Oc4ccccc43)n2)c1 |  | inactive: 0%
4 | CC(Oc1ccc2c3c(c(=O)oc2c1)CCCC3)C(=O)NCc1ccccn1 (centres undefined) | inconclusive: 13.1 µM [inhibitor, single point] | 
5 | Cc1ccc(C(C)NC(=O)c2ccc3c(c2)OCO3)cc1C (centres undefined) | inconclusive: 18.5 µM [inhibitor, single point] | 
6 | Nc1c(C(=O)N2CCCCC2)sc2nc3c(cc12)CCCC3 |  | inactive: 0%
7 | Cc1ccc(C(=O)NCc2ccc3c(c2)OCO3)cc1Cl | inconclusive: 14.7 µM [inhibitor, partial curve, poor fit] | 
8 | COc1ccc(/C=N/NC(=O)c2ccc(-c3ccccc3)cc2)cc1O |  | inactive: -1.92%
9 | Cc1cc2n(n1)C(c1ccccc1Cl)Nc1ccccc1-2 (centres undefined) | inconclusive: 4.15 µM [inhibitor, single point] | 
10 | COc1ccc(OC)c2[nH]c(=O)c(CCNC(=O)c3cc4ccccc4o3)cc12 | active: 5.22 µM | 
11 | COc1cc(/C=C(\C#N)c2ccccn2)ccc1OCc1ccc(Cl)cc1 | active: 5.22 µM | 
12 | Cc1ccc(Cc2cnc(NC(=O)/C(C#N)=C/c3ccc(-c4cccc([N+](=O)[O-])c4)o3)s2)cc1 |  | inactive: 48.8%
13 | COc1ccc(C=O)cc1OC1C=CCCC1 (centres undefined) | inconclusive: 10.4 µM [inhibitor, single point] | 
14 | Cc1[nH]n(-c2ccc(Br)cc2)c(=O)c1/C=N/NC(=O)c1ccccc1 | inconclusive: 10.4 µM [inhibitor, single point] | 
15 | Cc1noc(C)c1C(=O)N1CCN(c2ccccc2O)CC1 | inconclusive: 18.5 µM [inhibitor, single point] | 
16 | COc1ccccc1NC(=O)CN1C(=O)COc2ccc(S(=O)(=O)N3CCOCC3)cc21 | inconclusive: 11.7 µM [inhibitor, partial curve, poor fit] | 
17 | Cc1ccc(C)c(S(=O)(=O)N2CCN(CC(=O)Nc3ccc([N+](=O)[O-])cc3)CC2)c1 | active: 10.4 µM | 
18 | COc1ccc(Nc2ccc(S(=O)(=O)N3CCCCCC3)cc2[N+](=O)[O-])cc1 | inconclusive: 18.5 µM [inhibitor, single point] | 
19 | O=C(Nc1c(S(=O)(=O)c2ccc(Cl)cc2)csc1Br)c1ccccc1Cl | inconclusive: 14.7 µM [inhibitor, partial curve, poor fit] | 
20 | C/C(=N/NC(=O)C1CC1(c1ccccc1)c1ccccc1)c1cccs1 (centres undefined) | inconclusive: 10.4 µM [inhibitor, single point] | 
21 | O=C(NNC(=S)NCc1ccco1)c1cccs1 | inconclusive: 11.7 µM [inhibitor, partial curve, poor fit] | 
22 | O=C(CSc1nc(O)cc(=O)[nH]1)N1c2ccccc2CCc2ccccc21 | inconclusive: 18.5 µM [inhibitor, single point] | 

Among those listed so far, 4 have a Cl atom.
Row | Structure (SMILES) | Potency | activity change, negative = inhibition
7 | Cc1ccc(C(=O)NCc2ccc3c(c2)OCO3)cc1Cl | inconclusive: 14.7 µM [inhibitor, partial curve, poor fit] | 
9 | Cc1cc2n(n1)C(c1ccccc1Cl)Nc1ccccc1-2 (centres undefined) | inconclusive: 4.15 µM [inhibitor, single point] | 
11 | COc1cc(/C=C(\C#N)c2ccccn2)ccc1OCc1ccc(Cl)cc1 | active: 5.22 µM | 
19 | O=C(Nc1c(S(=O)(=O)c2ccc(Cl)cc2)csc1Br)c1ccccc1Cl | inconclusive: 14.7 µM [inhibitor, partial curve, poor fit] | 

(cont.)

Row | Structure (SMILES) | Potency | activity change, negative = inhibition
23 | CC(NC(=O)c1cc(COc2cccc(C(F)(F)F)c2)on1)c1nccs1 (centres undefined) |  | inactive: 33.3%
24 | Cc1ccc(C2(COC(=O)C(C)C)CO2)c(OC(=O)C(C)C)c1 (centres undefined) |  | inactive: -24.3%
25 | O=C(NN1C(=O)C2C(C1=O)C1C=CC2C12CC2)c1cccnc1 (centres undefined) | inconclusive: 0.0586 µM [inhibitor, full curve, poor fit] | 
26 | COc1ccc(Nc2ccc([N+](=O)[O-])cn2)cc1 |  | inactive: -17.4%
27 | COC(=O)Nc1ccc2c(c1)N(C(=O)CCN1CCN3CCCC3C1)c1ccccc1CC2 (centres undefined) | inconclusive: 1.17 µM [inhibitor, partial curve, poor fit] | 
28 | O=C(CCc1c[nH]c2ccccc12)N1CCN(S(=O)(=O)c2ccc(F)cc2)CC1 | inconclusive: 9.28 µM [inhibitor, single point] | 
29 | Cc1ccc2sc(N3CCN(CCNC(=O)c4ccco4)CC3)nc2c1C | inconclusive: 11.7 µM [inhibitor, single point] | 
30 | CCN(CC)c1ccc(NC(=O)c2ccccc2)cc1S(=O)(=O)Nc1ccccc1OC | inconclusive: 2.33 µM [inhibitor, partial curve, poor fit] | 
31 | CCc1nnc(NC(=O)CSc2nnc(CNc3ccc(OC)cc3)n2C)s1 | inconclusive: 11.7 µM [inhibitor, partial curve] | 
32 | Cc1nnc2n(c1=O)C(CS(=O)(=O)c1ccccc1)CS2 (centres undefined) | inconclusive: 18.5 µM [inhibitor, single point] | 
33 | Cc1cc(=O)c(C(=O)O)nn1-c1cccc(C(F)(F)F)c1 |  | inactive: 25.2%
34 | COc1cc(Cl)c(C)cc1NC(=O)CSc1nnc(-c2ccccn2)n1Cc1ccco1 | inconclusive: 18.5 µM [inhibitor, single point] | 
35 | CCn1c(COc2ccc(=O)n(-c3ccccc3)n2)n[nH]c1=S | inconclusive: 10.4 µM [inhibitor, partial curve, poor fit] | 
36 | COc1ccc(-c2nn3c(=O)c(C)nnc3s2)cc1 | inconclusive: 3.7 µM [inhibitor, full curve, poor fit] | 
37 | O=C(COc1ccc2c3c(c(=O)oc2c1)CCCC3)NCCCn1ccnc1 | inconclusive: 11.7 µM [inhibitor, single point] | 
38 | CC(=O)N1CCN=C1SCc1ccccc1Cl | inconclusive: 1.85 µM [inhibitor, single point] | 
39 | O=C(Nc1ccccc1C(=O)NCc1ccco1)NC1CCCCC1 | inconclusive: 0.415 µM [inhibitor, full curve, poor fit] | 
40 | COc1ccc(NC(=O)c2nc(C)c(C3(C)CC(c4cccnc4)=NO3)s2)cc1 (centres undefined) | inconclusive: 9.28 µM [inhibitor, single point] | 
41 | O=C(c1cc2nc(-c3ccco3)cc(C(F)(F)F)n2n1)N1CCCc2ccccc21 | inconclusive: 13.1 µM [inhibitor, partial curve] | 
42 | COCCN1Cc2cccc(C(=O)Nc3ccc(S(=O)(=O)N4CCCCCC4)cc3)c2C1=O | inconclusive: 0.928 µM [inhibitor, full curve, poor fit] | 
43 | CC(C)c1ccc(/C=C/C(=O)NCCCc2ccccc2)cc1 |  | inactive: 46%
44 | CC(C)N=C1NN=C(c2ccc(Cl)c(Cl)c2)CS1 |  | inactive: -47.2%

Row | Structure (SMILES) | Potency | activity change, negative = inhibition
45 | Cc1ccc(S(=O)(=O)N(C)C)cc1NC(=O)CN1C(=O)NC(Cc2ccccc2)C1=O (centres undefined) | inconclusive: 10.4 µM [inhibitor, single point] | 
46 | COc1ccccc1C(=O)Nc1ccnn1C1CCN(Cc2cn(C)c3ccccc23)CC1 |  | inactive: -16.7%
47 | CC(C)C(NC(=O)c1ccccc1NC(=O)c1ccco1)C(=O)NNC(=O)c1ccncc1 (centres undefined) | inconclusive: 14.7 µM [inhibitor, partial curve, poor fit] | 
48 | CCCCOC(=O)c1ccc(NC(=O)COC(=O)c2ccc3ncsc3c2)cc1 |  | inactive: 71.5%
49 | C/C=C(/C)C(=O)OC1c2c(ccc3ccc(=O)oc23)OC(C)(C)C1OC(C)=O (centres undefined) | inconclusive: 18.5 µM [inhibitor, single point] | 
50 | CSc1cc(C)n(-c2ccc(Cl)cc2)c(=S)c1C(C)=O | inconclusive: 10.4 µM [inhibitor, partial curve, poor fit] | 
51 | Cc1ccc(NC(=O)c2ccc3c(c2)N(CC(=O)N2CCCCC2)C(=O)C(C)(C)O3)cc1 | inconclusive: 13.1 µM [inhibitor, partial curve, poor fit] | 
52 | COc1ccc(CNC(=O)CN(c2ccc(C(C)C)cc2)S(=O)(=O)c2c(C)noc2C)cc1 | inconclusive: 10.4 µM [inhibitor, single point] | 
53 | CCCS(=O)(=O)N1CCC(C(=O)N2CCc3ccccc3C2)CC1 | inconclusive: 0.0033 µM [inhibitor, full curve, poor fit] | 
54 | CN(C1CCCCC1)S(=O)(=O)c1ccc(NC(=O)CCC(=O)O)cc1 | inconclusive: 4.15 µM [inhibitor, partial curve, poor fit] | 
55 | O=C(Oc1cccc(C(=S)N2CCOCC2)c1)c1cc([N+](=O)[O-])cc([N+](=O)[O-])c1 |  | inactive: 4.81%
56 | Cc1cccc(-n2cnc3c(sc4nc(N5CCOCC5)c5c(c43)CCCC5)c2=O)c1 | inconclusive: 5.22 µM [inhibitor, partial curve] | 
57 | CCN1CC(CN(C)Cc2nc(-c3ccc(C(F)(F)F)cc3)oc2C)CC1=O (centres undefined) | inconclusive: 11.7 µM [inhibitor, partial curve] | 
58 | CC(C)CC(C)c1cc(N)nc2nc3ccccc3n12 (centres undefined) | active: 11.7 µM | 
59 | CC(=O)Nc1ccc(S(=O)(=O)NCCNS(=O)(=O)c2ccc(NC(C)=O)cc2)cc1 | inconclusive: 11.7 µM [inhibitor, single point] | 
60 | CCCC(=O)Nc1ccc2c(c1)nc1n2CCN(C2CCCCC2)C1 | inconclusive: 9.28 µM [inhibitor, partial curve] | 
61 | CCN(CC)CCCn1c2c(c(SCC(=O)Nc3ccc(F)c(F)c3)nc1=O)CCC2 | inconclusive: 18.5 µM [inhibitor, single point] | 
62 | O=C(O)CCC(NC(=O)C1CCCN1C(=O)OCc1ccccc1)C(=O)O (stereo not drawn) (Cbz-Pro-Glu-OH; configuration not given here) | inconclusive: 11.7 µM [inhibitor, partial curve] | 
63 | Cc1ccc(N/N=C(\Cc2nc3ccccc3[nH]2)c2ccccc2)cc1 | inconclusive: 4.15 µM [inhibitor, full curve] | 
64 | CCOC(=O)c1c(NC(=O)COC(=O)c2ccc(O)cc2)sc(C(=O)N(C)C)c1C | inconclusive: 18.5 µM [inhibitor, single point] | 
